Residue numbers refer to the chain shown, from its start. In names and notes the source's numbering stands. These are yes or no findings as the source states them, for the method shown. In cells and extracts the contact can be indirect. Some entries that bind do so weakly or less than the wild type.
B1: TWIST1 (wild type, Myc-His tagged) (other, not shown: small tags and cut ends)
chain: MMQDVSSSPVSPADDSLSNSEEEPDRQQPPSGKRGGRKRRSSRRSAGGGAGPGGAAGGGVGGGDEPGSPAQGKRGKKSAGCGGGGGAGGGGGSSSGGGSPQSYEELQTQRVMANVRERQRTQSLNEAFAALRKIIPTLPSDKLSKIQTLKLAARYIDFLYQVLQSDELDSKMASCSYVAHERLSYAFSVWRMEGAWSMSASH
B2: TWIST1 E193A (other, not shown: small tags and cut ends)
chain: B1 chain with E193A
B3: TWIST1 R191A (other, not shown: small tags and cut ends)
chain: B1 chain with R191A
B4: TWIST1 W190A (other, not shown: small tags and cut ends)
chain: B1 chain with W190A

Chains of the proteins cited; added tags and fusions are not shown.
UniProt Q04206: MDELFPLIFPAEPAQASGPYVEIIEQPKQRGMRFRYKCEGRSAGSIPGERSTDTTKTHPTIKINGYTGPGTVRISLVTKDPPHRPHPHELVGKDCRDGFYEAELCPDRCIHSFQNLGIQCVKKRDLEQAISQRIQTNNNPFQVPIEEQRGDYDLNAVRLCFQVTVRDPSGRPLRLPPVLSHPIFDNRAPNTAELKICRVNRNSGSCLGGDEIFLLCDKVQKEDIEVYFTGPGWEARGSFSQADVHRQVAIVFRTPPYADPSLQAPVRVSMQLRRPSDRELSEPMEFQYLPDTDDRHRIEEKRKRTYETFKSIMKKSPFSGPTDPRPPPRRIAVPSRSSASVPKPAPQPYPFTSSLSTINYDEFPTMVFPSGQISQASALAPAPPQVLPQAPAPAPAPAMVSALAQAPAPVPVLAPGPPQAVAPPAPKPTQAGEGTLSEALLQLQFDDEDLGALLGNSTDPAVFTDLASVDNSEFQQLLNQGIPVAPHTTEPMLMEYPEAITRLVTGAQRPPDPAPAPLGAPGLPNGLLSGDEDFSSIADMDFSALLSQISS

Tests used:
RELA (wild type) [1] = target: RELA (wild type) (UniProt Q04206); test: Co-IP of RELA, western blot for TWIST1, transfected HEK-293 cells
RELA (wild type) [2] = target: RELA (wild type) (UniProt Q04206); test: Co-IP, RELA pulldown, western blot for TWIST1, transfected HEK293 cells
RELA (wild type) [3] = target: RELA (wild type) (UniProt Q04206); test: Co-IP (FIG. 2B legend)

Binder | binding (RELA (wild type) [1]) | binding (RELA (wild type) [2]) | binding (RELA (wild type) [3])
B1 | binds | binds | –
B2 | – | binds | binds
B3 | – | binds | binds
B4 | – | binds | binds

Reference: US20200230201A1 (CITY OF HOPE, published 2020)
